Laboratory results reported in PubChem BioAssay AID2685 (National Center for Advancing Translational Sciences (NCATS), 2010).
This is one part of the list. Further columns of the screen follow, without active or inactive calls. The list favours compounds with an active or inconclusive main result. Potencies come from curve fits of mixed quality, noted in brackets.

Test: qHTS Assay for Lipid Storage Modulators in Drosophila S3 Cells;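 as to cell number change: cells counted by Cell Tracker Red CMTPX staining in the red channel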
Conditions: BODIPY lipid droplet fluorescence, 18-24 h; for cell number change: measured here: cell count max response, cells fed with added oleic acid
Outline: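 Laser-scanning cytometry quantifies lipid droplet accumulation (500–530 nm total intensity; droplet/cell object ratio) in oleic acid-fed (400 uM added) Drosophila S3 cells treated with a concentration series. 20 uM Triacsin C defined 100% inhibition.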

[1] = measured here: lipid fluorescence (Fed channel) AC50, cells fed with added oleic acid
[2] = measured here: cell number channel AC50, cells fed with added oleic acid

CCC(=O)c1ccc(O)c(OC)c1
cell number change: 3.13% | AC50 [1]: 6.51 µM [falling, single point]

NS(=O)(=O)c1ccc(N/N=C/c2cn(-c3ccccc3)nc2-c2cccs2)cc1
cell number change: -54.9% | AC50 [2]: 29.1 µM [falling, single point] | AC50 [1]: 29.1 µM [falling, single point]

c1ccc(-c2ccccc2OCCCCN2CCCCCC2)cc1
cell number change: 11.1%

COC(=O)N1C(=O)[C@](c2ccccc2)(C2CCCCC2)N1C(=O)OC
cell number change: 16.5%

COc1cccc2sc(N(CCN(C)C)C(=O)/C=C/c3cccs3)nc12
cell number change: -21.4% | AC50 [1]: 29.1 µM [falling, single point]

Cc1cc2c(c(=O)n1C1CC1)C(c1cccc(Cl)c1)C(C#N)=C(N)O2 (stereo not given)
cell number change: 15% | AC50 [1]: 2.06 µM [rising, single point]

CCOC(=O)N1CCN(c2c(NCC3CCN(Cc4cccc(C)c4)CC3)c(=O)c2=O)CC1
cell number change: -95.7% | AC50 [2]: 29.1 µM [falling, single point] | AC50 [1]: 29.1 µM [falling, single point]

Cc1ccc(NC(=O)c2ccc(NCCc3ccccc3)c([N+](=O)[O-])c2)cc1F
cell number change: 10.3%

O=c1c2ccccc2sn1-c1ccc(F)cc1
cell number change: -79.4% | AC50 [2]: 3.66 µM [falling, full curve] | AC50 [1]: 4.61 µM [falling, full curve]

COc1ccc(NC(=O)CCNC(=O)N2CC(=O)Nc3ccccc32)c(OC)c1
cell number change: 22.1% | AC50 [1]: 29.1 µM [rising, single point]

O=C(N1CCOCC1)N(Cc1cccs1)C1CCCC1
AC50 [2]: 0.92 µM [rising, full curve] | AC50 [1]: 0.058 µM [falling, full curve, poor fit]

CCn1c(=O)c2cc(C(=O)N3CCN(C)CC3)sc2c2ccccc21
cell number change: 51.5% | AC50 [2]: 3.66 µM [rising, partial curve] | AC50 [1]: 1.46 µM [rising, partial curve]

COc1ccc(NS(=O)(=O)c2cc(NC(=O)Cc3cccs3)ccc2C)cc1
cell number change: 28.4% | AC50 [1]: 10.3 µM [rising, partial curve, poor fit]

CCOc1ccc(CNC(=O)CCc2cn(C)c3ccccc23)cc1
cell number change: -0.709% | AC50 [2]: 0.00461 µM [falling, full curve, poor fit]

CCN(CC(=O)Nc1ccc2c(c1)OCCO2)C(=O)c1cc(Cl)nc2ccccc12
cell number change: 10.6% | AC50 [1]: 23.1 µM [rising, single point]

Cn1nc(C(=O)NCCc2ccc(Cl)cc2)c2c1-c1ccccc1S(=O)(=O)C2
cell number change: 16.7% | AC50 [1]: 29.1 µM [falling, single point]

Cc1cc2c(o1)CC(C)(C)CC2=O
cell number change: 61.3%

COc1cccc(NC(=O)N2CCCC2C(=O)Nc2cc(C)ccc2OC)c1 (stereo not given)
cell number change: 2.08%

CCCC(=O)Nc1ccc(-c2nc3cc(C)c(C)cc3o2)cc1
cell number change: -1.07% | AC50 [1]: 5.8 µM [falling, partial curve]

CC1CCN(S(=O)(=O)c2ccc3c(c2)N(CC(=O)N(C)Cc2ccco2)C(=O)CO3)CC1
cell number change: -11.2% | AC50 [1]: 2.31 µM [falling, partial curve]

Cn1c(CSCc2ccccc2Cl)nnc1SCC(=O)Nc1nccs1
AC50 [1]: 2.31 µM [rising, partial curve]

COc1cc(C)c(Cl)cc1S(=O)(=O)n1ccnc1C
cell number change: -11.7%

CCOC(=O)C1=C(C)Nc2ccccc2N=C1NC(=O)c1cccc(S(=O)(=O)N(C)C)c1
AC50 [1]: 0.731 µM [falling, single point]

CCCCCc1ccc(C(=O)CCC(=O)OCC(=O)N(CC)c2c(N)n(Cc3ccccc3)c(=O)[nH]c2=O)cc1
AC50 [2]: 0.58 µM [rising, single point]

NC(=O)c1nsc(C(=O)N(Cc2cccnc2)C(C(=O)NCc2ccc(F)cc2)c2ccc(O)cc2)c1N (stereo not given)
cell number change: -8.97%

CCCCN1C(=O)C(=O)N(CC(=O)N2CCc3ccccc32)C1=O
cell number change: 12.1% | AC50 [1]: 16.4 µM [rising, single point]

CC1CCN(c2ccc(NC(=O)c3ccc([N+](=O)[O-])o3)cc2)CC1
AC50 [1]: 8.2 µM [falling, partial curve]

Cc1cc(-n2[nH]c(C)c(C)c2=O)nc(-c2ccccc2O)n1
cell number change: -4.98% | AC50 [1]: 5.8 µM [rising, full curve, poor fit]

CCCNc1c(NC(=O)c2ccc3c(c2)OCO3)c(=O)oc2ccccc12
cell number change: 11.2% | AC50 [1]: 0.82 µM [rising, single point]

Cc1ccc(C)c(CSC2=NCCN2C(=O)c2cccs2)c1
cell number change: -40.3% | AC50 [2]: 18.4 µM [falling, single point] | AC50 [1]: 7.31 µM [falling, partial curve]

O=C(NCC(c1cccs1)N1CCOCC1)c1ccc(Br)o1 (stereo not given)
cell number change: 57% | AC50 [2]: 29.1 µM [rising, single point] | AC50 [1]: 0.517 µM [rising, single point]

Cc1ccc(-c2n[nH]c(=S)nc2-c2ccc(C)cc2)cc1
AC50 [1]: 20.6 µM [falling, partial curve]

Cc1ccc(NC(=O)C2CCCN(c3ncnc4c3nc3n4CCCCC3)C2)nc1 (stereo not given)
cell number change: -5.73% | AC50 [2]: 0.231 µM [falling, full curve, poor fit] | AC50 [1]: 0.651 µM [rising, single point]

Cc1ccc(Cn2c(SCCN3CCOCC3)nc3c2c(=O)n(C)c(=O)n3C)cc1
cell number change: -20.1% | AC50 [1]: 13 µM [rising, partial curve]

CCOC(=O)c1c(NC(=O)Cn2nc(C(F)F)cc2C(F)F)sc(C)c1C
cell number change: 78.5% | AC50 [2]: 18.4 µM [rising, single point]

CN(CC(=O)Nc1cccc(F)c1)C(=O)c1sc2ccccc2c1Cl
cell number change: -28.3% | AC50 [1]: 9.2 µM [falling, partial curve, poor fit]

Cn1c(SCC(=O)N/N=C/C=C/c2ccccc2[N+](=O)[O-])nc2ccccc21
cell number change: -10.4% | AC50 [1]: 0.731 µM [rising, single point]

O=C(c1ccco1)N(Cc1ccco1)c1ccc(O)cc1
cell number change: 21.2% | AC50 [2]: 0.0517 µM [rising, full curve, poor fit] | AC50 [1]: 0.00461 µM [falling, full curve, poor fit]

O=C(CSc1nnc(CNC(=O)c2ccco2)o1)NC1CCCC1
cell number change: -61% | AC50 [2]: 16.4 µM [falling, single point] | AC50 [1]: 6.51 µM [falling, single point]

Cc1ccc(-c2nc(CS(=O)(=O)CC(=O)Nc3cc(F)ccc3F)c(C)o2)cc1
cell number change: 8.65% | AC50 [1]: 0.461 µM [rising, partial curve, poor fit]

COc1ccccc1NC(=O)Nc1nc(CC(=O)N2CCN(c3ccccc3OC)CC2)cs1
cell number change: 50.2% | AC50 [2]: 1.3 µM [rising, full curve]

COCCCNC(=O)c1cccn2c(=O)c3cc4ccccc4cc3nc12
cell number change: -22.6%

CC1CCN(C(=O)CSc2nnc(-c3cccnc3)o2)CC1
cell number change: 33.3%

COC(=O)CCCn1c(C)cc(C(=O)CCl)c1C
cell number change: -14.4% | AC50 [2]: 0.461 µM [rising, single point] | AC50 [1]: 23.1 µM [falling, single point]

COc1ccc(N2CCN(C(=O)C3CCCN(c4ncnc5c4nc4n5CCCCC4)C3)CC2)cc1 (stereo not given)
cell number change: -4.2% | AC50 [1]: 6.51 µM [rising, single point]

CC(C)c1ccc(/C=C2\C(=N)N3N=C(CC(=O)N4CCCCC4)SC3=NC2=O)cc1
cell number change: -9.13% | AC50 [1]: 0.206 µM [rising, full curve, poor fit]

COc1ccc(CCNC(=O)CSc2nnnn2Cc2ccc3c(c2)OCO3)cc1OC
cell number change: -17.3% | AC50 [1]: 13 µM [falling, partial curve]

CC(=O)c1cc(CC=C(C)C)c(O)c(CC=C(C)C)c1O
cell number change: -22.7% | AC50 [2]: 0.103 µM [falling, full curve, poor fit]

CCOc1ccccc1NC(=O)CSc1nc2cccnc2n1C
cell number change: -13.2% | AC50 [1]: 0.92 µM [rising, full curve, poor fit]

C/C(=N\Nc1ccc([N+](=O)[O-])cc1[N+](=O)[O-])C(C)C(C)C (stereo not given)
cell number change: -69.8% | AC50 [2]: 13 µM [falling, partial curve] | AC50 [1]: 29.1 µM [falling, single point]

COc1ccc(-n2c(=O)cc(N3CCN(c4ccccc4)CC3)[nH]c2=O)cc1
cell number change: -38.2% | AC50 [2]: 29.1 µM [falling, single point] | AC50 [1]: 0.231 µM [falling, full curve]

COc1ccc(OC)c(NC(=O)CC(NCCC2=CCCCC2)C(=O)O)c1 (stereo not given)
AC50 [1]: 4.11 µM [falling, partial curve]

O=c1[nH]c2ccc(Cl)cc2c(-c2ccccc2)c1SC(=S)N1CCOCC1
cell number change: -44.9% | AC50 [2]: 5.8 µM [falling, full curve] | AC50 [1]: 6.51 µM [falling, single point]

Cc1nn(-c2ccccc2)c(N)c1N=Nc1cccnc1
cell number change: 44.6% | AC50 [2]: 11.6 µM [rising, partial curve, poor fit]

CC(C)(C)c1cc(CN2CCCCC2)cc(C(C)(C)C)c1O
cell number change: 38.1% | AC50 [2]: 11.6 µM [rising, partial curve, poor fit]

CCC(=O)Nc1ccc2nc(C)n(CC(=O)Nc3ccccc3)c(=O)c2c1
cell number change: -8.46%

COc1ccc(C)cc1S(=O)(=O)N1CCN(C(=O)c2ncoc2-c2ccc(F)cc2)CC1
cell number change: -1.32% | AC50 [1]: 3.16 µM [falling, partial curve]

COC(=O)CCC(=O)OC1(C)C(=O)C=C2C=C(C3CC3)N(C3CC3)C=C2C1=O (stereo not given)
cell number change: -2.29% | AC50 [1]: 0.517 µM [falling, partial curve, poor fit]

O=C(CSc1nnc(Cc2ccccc2)o1)Nc1cccc(F)c1
cell number change: 23.7% | AC50 [1]: 29.1 µM [rising, single point]
